Data reported in patent publication US8486942B2, “Modulators of pharmacokinetic properties of therapeutics” (Gilead Sciencs, Inc., priority 2007, dated 2013).
Some of these results come from one statement about several compounds together. For at least one compound, name, drawing or mass did not settle the structure.

System: wild-type HIV-1 strain IIIB
Assay: Anti-HIV-1 cell culture assay (EC50), XTT viability of infected MT2 cells
Assay type: cell-based
Details: MT2 cells infected with HIV-1 IIIB, 5 days; read-out: protease inhibition activity represented by HIV EC50

For `CC(C)c1nc(CN(C)C(=O)N[C@@H](CCN2CCOCC2)C(=O)N[C@H](CC[C@H](Cc2ccccc2)NC(=O)OCc2cncs2)Cc2ccccc2)cs1` [Example S], the EC50 was over 30 µM.
